The target of test [1] is T1, α-catenin (rat (endogenous in IAR-20, IAR-6-1, IAR-6-1-DNE)) (UniProt Q5U302).
T1 sequence: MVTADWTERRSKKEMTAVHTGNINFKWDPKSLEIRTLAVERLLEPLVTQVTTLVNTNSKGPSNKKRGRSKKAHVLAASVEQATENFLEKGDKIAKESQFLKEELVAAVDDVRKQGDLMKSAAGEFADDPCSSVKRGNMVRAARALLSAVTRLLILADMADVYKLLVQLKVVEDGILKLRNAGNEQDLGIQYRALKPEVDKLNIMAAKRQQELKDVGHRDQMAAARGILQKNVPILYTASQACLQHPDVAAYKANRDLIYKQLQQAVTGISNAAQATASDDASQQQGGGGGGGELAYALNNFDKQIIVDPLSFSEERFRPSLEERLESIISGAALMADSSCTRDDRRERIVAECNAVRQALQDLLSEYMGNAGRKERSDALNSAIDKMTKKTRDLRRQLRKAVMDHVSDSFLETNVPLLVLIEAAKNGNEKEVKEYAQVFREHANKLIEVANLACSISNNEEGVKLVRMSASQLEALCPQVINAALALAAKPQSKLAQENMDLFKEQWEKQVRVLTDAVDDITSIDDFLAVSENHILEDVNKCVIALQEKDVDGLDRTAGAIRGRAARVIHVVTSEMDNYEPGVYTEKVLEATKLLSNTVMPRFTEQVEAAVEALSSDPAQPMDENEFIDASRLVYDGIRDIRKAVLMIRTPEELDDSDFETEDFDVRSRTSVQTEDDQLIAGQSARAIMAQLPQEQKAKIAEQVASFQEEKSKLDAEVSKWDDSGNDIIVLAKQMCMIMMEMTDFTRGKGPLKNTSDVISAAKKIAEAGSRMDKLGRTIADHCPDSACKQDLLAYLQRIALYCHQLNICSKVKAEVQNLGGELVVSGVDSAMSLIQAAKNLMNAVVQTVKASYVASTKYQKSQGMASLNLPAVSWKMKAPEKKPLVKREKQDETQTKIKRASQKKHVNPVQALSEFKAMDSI
As to the kind of experiment: co-IP; total cell lysates (10 mM Tris-HCl pH 7.5, 0.5 mM EDTA, 150 mM NaCl, 0.5% Na deoxycholate, 1% NP-40, protease and phosphatase inhibitors) incubated with primary antibody, then Protein A or G agarose, +4 °C; Western blot; sparse cultures of control IAR-20, IAR-20 treated with EGF for 20 min, IAR-6-1 and IAR-6-1-DNE cells.

Test [2] addresses zyxin (rat (endogenous in IAR-20, IAR-6-1, IAR-6-1-DNE)). The test is described as above.

These are yes or no findings as the source states them, for the method shown. Binding seen in cells or lysates may run through a third protein. Binding can be weak; no strength is given.

Consider “E-cadherin (rat (endogenous in IAR-6-1, IAR-6-1-DNE))”, for which the binding entry in test [1] is given as “binds”.

B1: α-catenin (protein, UniProt Q5U302 1-922)
chain: T1 sequence
On to B1, for which the binding result in test [2] is “binds”.

For the origin of these results see publication PMC11083118.
